Measurements reported in PMC5775985.
These are yes or no findings as the source states them, for the method shown. In cells and extracts the contact can be indirect. Some results given as binding are weak or reduced against the parent protein; the word gives no strength.

Chains of the proteins cited; added tags and fusions are not shown.
UniProt P29994: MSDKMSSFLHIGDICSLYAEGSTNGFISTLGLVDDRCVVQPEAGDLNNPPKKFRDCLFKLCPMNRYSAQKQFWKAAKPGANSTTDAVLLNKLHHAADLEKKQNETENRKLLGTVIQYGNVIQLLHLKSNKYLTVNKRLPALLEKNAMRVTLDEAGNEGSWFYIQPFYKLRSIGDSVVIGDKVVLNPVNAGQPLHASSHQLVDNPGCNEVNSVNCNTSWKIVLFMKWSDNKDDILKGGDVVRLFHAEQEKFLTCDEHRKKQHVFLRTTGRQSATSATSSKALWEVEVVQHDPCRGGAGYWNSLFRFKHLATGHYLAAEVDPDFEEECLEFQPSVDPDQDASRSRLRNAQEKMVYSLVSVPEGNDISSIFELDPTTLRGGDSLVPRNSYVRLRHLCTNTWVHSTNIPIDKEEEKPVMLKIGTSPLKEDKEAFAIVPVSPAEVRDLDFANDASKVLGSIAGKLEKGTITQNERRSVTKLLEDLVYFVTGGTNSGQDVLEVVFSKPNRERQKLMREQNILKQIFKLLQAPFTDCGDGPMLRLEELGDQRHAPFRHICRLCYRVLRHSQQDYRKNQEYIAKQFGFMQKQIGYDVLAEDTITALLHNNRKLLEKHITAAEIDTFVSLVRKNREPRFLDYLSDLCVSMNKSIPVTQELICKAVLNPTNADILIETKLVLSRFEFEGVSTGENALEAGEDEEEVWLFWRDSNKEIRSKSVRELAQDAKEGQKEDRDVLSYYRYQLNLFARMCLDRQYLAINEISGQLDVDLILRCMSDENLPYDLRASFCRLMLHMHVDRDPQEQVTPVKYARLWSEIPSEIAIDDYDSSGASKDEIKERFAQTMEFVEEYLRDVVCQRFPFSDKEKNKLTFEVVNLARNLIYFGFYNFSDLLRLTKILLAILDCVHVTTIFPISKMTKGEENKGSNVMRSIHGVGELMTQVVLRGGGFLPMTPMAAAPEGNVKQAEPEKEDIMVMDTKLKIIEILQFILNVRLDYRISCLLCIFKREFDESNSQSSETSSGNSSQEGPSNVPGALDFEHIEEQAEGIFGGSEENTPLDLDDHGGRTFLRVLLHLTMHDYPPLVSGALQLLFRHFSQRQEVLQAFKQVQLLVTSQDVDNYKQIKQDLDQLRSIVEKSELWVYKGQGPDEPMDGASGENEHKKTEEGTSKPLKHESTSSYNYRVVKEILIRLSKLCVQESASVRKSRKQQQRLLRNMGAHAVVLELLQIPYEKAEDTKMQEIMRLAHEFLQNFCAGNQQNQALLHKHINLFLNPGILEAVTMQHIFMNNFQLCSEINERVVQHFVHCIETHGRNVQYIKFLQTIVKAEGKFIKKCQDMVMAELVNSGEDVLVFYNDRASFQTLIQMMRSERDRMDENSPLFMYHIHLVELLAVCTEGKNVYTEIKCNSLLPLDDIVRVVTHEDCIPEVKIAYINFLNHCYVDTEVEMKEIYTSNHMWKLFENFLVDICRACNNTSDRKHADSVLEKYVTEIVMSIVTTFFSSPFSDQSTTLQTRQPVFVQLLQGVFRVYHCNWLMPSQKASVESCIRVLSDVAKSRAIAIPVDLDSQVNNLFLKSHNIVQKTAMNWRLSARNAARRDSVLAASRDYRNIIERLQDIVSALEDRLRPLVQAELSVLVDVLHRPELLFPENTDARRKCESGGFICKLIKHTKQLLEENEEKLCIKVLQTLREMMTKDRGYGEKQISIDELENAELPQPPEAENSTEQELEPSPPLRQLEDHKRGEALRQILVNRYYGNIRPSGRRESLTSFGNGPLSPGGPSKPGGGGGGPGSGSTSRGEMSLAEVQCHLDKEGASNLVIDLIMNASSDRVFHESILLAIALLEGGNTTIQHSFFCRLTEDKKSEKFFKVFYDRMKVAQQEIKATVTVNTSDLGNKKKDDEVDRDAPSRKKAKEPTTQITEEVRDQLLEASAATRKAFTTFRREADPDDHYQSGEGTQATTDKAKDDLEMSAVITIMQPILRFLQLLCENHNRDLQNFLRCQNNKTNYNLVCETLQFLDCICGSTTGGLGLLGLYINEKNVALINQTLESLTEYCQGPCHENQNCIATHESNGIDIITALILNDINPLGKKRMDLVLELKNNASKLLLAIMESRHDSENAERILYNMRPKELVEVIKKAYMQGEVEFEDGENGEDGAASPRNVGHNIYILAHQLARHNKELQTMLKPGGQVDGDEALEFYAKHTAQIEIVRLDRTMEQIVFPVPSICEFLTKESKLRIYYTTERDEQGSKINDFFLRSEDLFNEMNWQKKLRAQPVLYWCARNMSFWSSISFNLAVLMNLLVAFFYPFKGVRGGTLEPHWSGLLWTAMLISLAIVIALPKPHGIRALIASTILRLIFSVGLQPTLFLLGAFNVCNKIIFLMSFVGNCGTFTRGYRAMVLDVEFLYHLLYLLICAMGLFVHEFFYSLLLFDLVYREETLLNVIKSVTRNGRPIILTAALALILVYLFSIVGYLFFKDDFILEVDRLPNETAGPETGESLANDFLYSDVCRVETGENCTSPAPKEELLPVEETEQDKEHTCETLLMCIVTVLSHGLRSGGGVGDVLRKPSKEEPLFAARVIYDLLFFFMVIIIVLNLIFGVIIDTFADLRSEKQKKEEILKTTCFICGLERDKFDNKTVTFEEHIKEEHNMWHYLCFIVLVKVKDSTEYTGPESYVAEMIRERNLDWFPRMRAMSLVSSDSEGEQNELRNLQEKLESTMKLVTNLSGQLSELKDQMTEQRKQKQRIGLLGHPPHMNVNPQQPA
UniProt Q9R0C9: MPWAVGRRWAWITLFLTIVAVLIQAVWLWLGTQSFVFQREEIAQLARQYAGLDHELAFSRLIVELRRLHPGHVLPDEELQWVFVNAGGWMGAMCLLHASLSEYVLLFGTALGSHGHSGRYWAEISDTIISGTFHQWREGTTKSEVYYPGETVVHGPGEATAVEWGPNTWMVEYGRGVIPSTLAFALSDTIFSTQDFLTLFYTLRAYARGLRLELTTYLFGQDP
UniProt P18901: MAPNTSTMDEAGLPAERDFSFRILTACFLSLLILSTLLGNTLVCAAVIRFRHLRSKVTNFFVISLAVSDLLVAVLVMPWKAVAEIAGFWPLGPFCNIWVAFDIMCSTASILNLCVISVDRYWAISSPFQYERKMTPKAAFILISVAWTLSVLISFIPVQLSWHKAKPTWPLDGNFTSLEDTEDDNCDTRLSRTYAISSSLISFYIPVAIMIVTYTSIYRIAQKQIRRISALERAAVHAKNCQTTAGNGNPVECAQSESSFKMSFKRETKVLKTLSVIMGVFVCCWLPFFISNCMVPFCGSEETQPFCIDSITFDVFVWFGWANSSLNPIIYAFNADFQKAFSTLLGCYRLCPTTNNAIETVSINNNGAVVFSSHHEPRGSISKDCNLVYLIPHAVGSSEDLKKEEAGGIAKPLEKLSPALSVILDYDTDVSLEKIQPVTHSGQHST
UniProt P61169: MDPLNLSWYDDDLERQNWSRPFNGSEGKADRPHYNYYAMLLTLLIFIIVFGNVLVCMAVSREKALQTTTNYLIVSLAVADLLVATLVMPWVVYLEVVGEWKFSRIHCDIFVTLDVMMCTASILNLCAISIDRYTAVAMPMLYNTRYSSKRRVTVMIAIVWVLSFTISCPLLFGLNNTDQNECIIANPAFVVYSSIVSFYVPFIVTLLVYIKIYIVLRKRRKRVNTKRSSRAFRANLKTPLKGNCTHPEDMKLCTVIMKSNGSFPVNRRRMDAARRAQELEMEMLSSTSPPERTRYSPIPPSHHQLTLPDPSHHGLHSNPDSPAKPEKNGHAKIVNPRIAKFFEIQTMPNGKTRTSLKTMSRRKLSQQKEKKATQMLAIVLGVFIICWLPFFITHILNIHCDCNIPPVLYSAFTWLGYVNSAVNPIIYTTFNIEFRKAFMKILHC

Tests used:
[1] = target: type 1 inositol 1,4,5-trisphosphate receptor (mouse or rat (endogenous in NG-108, a mouse-rat hybrid line)) (UniProt P29994); assay: co-IP; Endogenous proteins from 1 mg detergent-extracted total protein of differentiated NG-108 cells (control, haloperidol 10 µmol/L or BD 1047 10 µmol/L treated); antibody to σ1R (OPRS1) or to IP3R1 on Dynabeads M-280, 4 h at 4 °C, washed with PTA (145 mmol/L NaCl, 0.5% Tween 20, pH 7.0); Western blot of the partner
[2] = target: sigma 1 receptor (mouse or rat (endogenous in NG-108, a mouse-rat hybrid line)) (UniProt Q9R0C9); assay: proximity ligation; In situ PLA (Olink) in differentiated NG-108 cells with rabbit anti-σ1R and mouse anti-IP3R1 antibodies, 37 °C; negative controls without one primary antibody
[3] = target: sigma 1 receptor (mouse or rat (endogenous in NG-108, a mouse-rat hybrid line)) (UniProt Q9R0C9); assay: co-IP; Endogenous proteins from 1 mg detergent-extracted total protein of differentiated NG-108 cells (control, haloperidol 10 µmol/L or BD 1047 10 µmol/L treated); antibody to σ1R (OPRS1) or to IP3R1 on Dynabeads M-280, 4 h at 4 °C, washed with PTA (145 mmol/L NaCl, 0.5% Tween 20, pH 7.0); Western blot of the partner
[4] = target: dopamine receptor D1 (mouse or rat (endogenous in NG-108, a mouse-rat hybrid line)) (UniProt P18901); assay: proximity ligation; In situ PLA (Olink) in differentiated NG-108 cells, control and BD 1047 (10 µmol/L) treated, with mouse anti-D1 and rabbit anti-D2 antibodies, 37 °C; negative controls without one primary antibody
[5] = target: dopamine receptor D1 (mouse or rat (endogenous in NG-108, a mouse-rat hybrid line)) (UniProt P18901); assay: condition: only cells treated with haloperidol (10 µmol/L); proximity ligation; In situ PLA (Olink) in differentiated NG-108 cells treated with haloperidol (10 µmol/L), with mouse anti-D1 and rabbit anti-D2 antibodies, 37 °C

Substance: sigma 1 receptor (from UniProt Q9R0C9 1-223)
- binding [1]: binds

Substance: type 1 inositol 1,4,5-trisphosphate receptor (from UniProt P29994 1-2750)
- binding [2]: binds
- binding [3]: binds

Substance: dopamine receptor D2 (from UniProt P61169 1-444)
- binding [4]: binds
- binding [5]: no binding
